We go through one sequence from article PMC7586746, “A putative nuclear copper chaperone promotes plant immunity in Arabidopsis” (Journal of Experimental Botany, 2020).

Common to all, as to test: EMSA
(In general: In EMSA bound probe runs differently from free probe, usually more slowly.)

The test system of data set [1] is TGA2 + CCP. As to conditions: with CCP, substantially more probe bound than TGA2 alone; LightShift EMSA kit: 500 ng GST-tagged protein, 4 fmol biotin-LS7 probe, 20 ul with 1 ul dI-dC, 1 ul 50% glycerol, kit 10x binding buffer, 20 min, 25 C; 6% native gel; recombinant protein; protein details: GST (N-terminal),GST (N-terminal).
In data set [2] the test system is CCP (Arabidopsis thaliana). As to conditions: CCP alone, faint binding; LightShift EMSA kit: 500 ng GST-tagged protein, 4 fmol biotin-LS7 probe, 20 ul with 1 ul dI-dC, 1 ul 50% glycerol, kit 10x binding buffer, 20 min, 25 C; 6% native gel; recombinant protein; protein details: GST (N-terminal).
Data set [3] has as its target T1, TGA2 (UniProt P43273).
T1 sequence (looked up): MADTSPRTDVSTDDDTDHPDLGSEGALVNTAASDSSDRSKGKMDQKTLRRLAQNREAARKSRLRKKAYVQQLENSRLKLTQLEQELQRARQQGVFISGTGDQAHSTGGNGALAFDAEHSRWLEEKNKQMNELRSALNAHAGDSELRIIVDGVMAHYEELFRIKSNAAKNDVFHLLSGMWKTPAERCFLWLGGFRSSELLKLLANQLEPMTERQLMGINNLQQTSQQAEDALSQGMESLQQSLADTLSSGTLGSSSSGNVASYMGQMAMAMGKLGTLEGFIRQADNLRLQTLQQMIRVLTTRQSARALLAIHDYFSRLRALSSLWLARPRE
As to conditions: TGA2 alone, faint binding; LightShift EMSA kit: 500 ng GST-tagged protein, 4 fmol biotin-LS7 probe, 20 ul with 1 ul dI-dC, 1 ul 50% glycerol, kit 10x binding buffer, 20 min, 25 C; 6% native gel; recombinant protein; residues 1-330; protein details: GST (N-terminal).

Construct, isoform or probe ends are uncertain for at least one entry. For part of these data: A weaker result is weaker than the reference pair of the same experiment. For part of these data: Where a protein sequence is shown, tags need not be part of it.

In the case of “TATTTTACTTACGTCATAGATGTGGCGGCA (double strand) [LS7 probe (PR1 promoter)]”, the binding result is “binds” in data set [1], “binds more weakly” in data set [2] and “binds more weakly” in data set [3].
